Source: PubChem BioAssay AID504467 (National Center for Advancing Translational Sciences (NCATS), 2011)
The whole screen tested about 330,000 compounds, of which about 7,700 (2.3%) were called active. Inconclusive means that the source gave no clear call. Such entries were picked first, then a sample of the others. Calls come from the whole dose curve; as a rule, active = well fitted inhibition curve with a large enough effect; inconclusive = small, poorly fitted or top-dose-only effect, or effect the other way; inactive = flat fitted curve, though single readings scatter. Potencies of inconclusive entries are doubtful fits and often do not repeat.
Potency is the fitted concentration of half-maximal effect.

Assay: qHTS screen for small molecules that inhibit ELG1-dependent DNA repair in human embryonic kidney (HEK293T) cells expressing luciferase-tagged ELG1; note: nearly all actives have a fitted effect of over 55% in size
Conditions: HEK293T ELG1-luciferase reporter, luminescence, 16 h, DNA damage induced by 5-fluorouridine; series mostly up to 46.1 µM
Method in brief: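 DMSO vehicle served as the neutral condition. Each well held 2,000 cells given 5-fluorouridine plus compound; after 16 hr at 37 °C/5% CO2, ONE-Glo was added and luciferase measured 30 min later.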
For `COC(=O)c1cccc(NC(=O)/C=C/c2ccc3c(c2)OCO3)c1`, the Potency was inconclusive: 32.6 µM [inhibitor, single point]. With `COc1ccc(S(=O)(=O)N2CCc3ccccc32)cc1C(=O)NC1(C)CCS(=O)(=O)C1` (centres undefined) the Potency was “inactive”. With `Cc1ccccc1OCC(=O)Nc1ccncc1` the Potency was inconclusive: 0.146 µM [inhibitor, full curve]. In the case of `O=C(COc1ccc(S(=O)(=O)N2CCCC2)cc1Cl)NC1CCCC1`, the Potency is reported as inconclusive: 9.2 µM [inhibitor, partial curve, poor fit]. With `CCOc1ccc(C2C3=C(CC(C)(C)CC3=O)N(CC(=O)O)C3=C2C(=O)CC(C)(C)C3)cc1OCC` the Potency was inconclusive: 2.24 µM [inhibitor, single point]. With `COc1cccc(CNC(=O)CCCNC(=O)c2ccc(Cl)cc2)c1` the Potency was “inactive”. In the case of `CC(=O)c1cc(O)c2ccccc2c1O`, the Potency is reported as inconclusive: 23.1 µM [activator, single point]. For `Cc1onc(-c2ccccc2Cl)c1C(=O)Nc1ccc(-c2nnc3n2CCCCC3)cc1`, the Potency was inconclusive: 20.6 µM [inhibitor, partial curve]. For `O=C(CN1CCOC1=O)N1CCCC(Nc2ccc(F)c(F)c2)C1` (centres undefined), the Potency was inconclusive: 7.3 µM [activator, partial curve]. With `COc1ccccc1C(=O)NC(=S)N1CCCc2ccccc21` the Potency was inconclusive: 16.4 µM [activator, partial curve]. For `CSc1ccc(Cl)c(C(=O)Nc2ccc(N3CCOCC3)cc2)c1`, the Potency was “inactive”. With `C/C(=N/Nc1ccc(C(=O)O)cc1)c1ccc(O)c(O)c1O` the Potency was inconclusive: 4.11 µM [activator, single point]. For `CC1CCCN(C(=O)CN2C(=O)NC3(CCCCC3C)C2=O)C1` (centres undefined), the Potency was “inactive”. For `CCN(c1ccccc1)S(=O)(=O)c1ccc(OC)c(NC(=O)c2cc(F)c(F)c(F)c2F)c1`, the Potency was “inactive”. In the case of `CCOC(=O)N1CCN(C(=O)c2ccc(-n3c(C)ccc3C)cc2)CC1`, the Potency is reported as “inactive”. In the case of `COc1cc(/C=C/c2ccc3cccc(OC)c3n2)c(O)c([N+](=O)[O-])c1`, the Potency is reported as “inactive”. For `COc1cc(/C=N/O)cc(Br)c1OCC(=O)NCc1ccccc1`, the Potency was “inactive”. With `CN(C)c1ccc(/C=N/Nc2cc(N3CCOCC3)nc(N3CCOCC3)n2)cc1` the Potency was inconclusive: 29.1 µM [inhibitor, single point]. In the case of `CC[C@@H](C)[C@@H]1CN([C@@H](CN2CCC[C@H]2CN2C(N)=NC[C@H]2C(C)C)C(C)C)C(=N)N1CCc1ccc(Cl)c(Cl)c1`, the Potency is reported as “inactive”. For `Nc1ccc(S(=O)(=O)NCc2ccccn2)cc1`, the Potency was “inactive”. With `O=C(COC(=O)c1cc(Cl)nc(Cl)c1)Nc1ccc(Cl)c(S(=O)(=O)N2CCOCC2)c1` the Potency was “inactive”. For `COc1ccc(CCNc2ccc(C(CC(N)=O)NC(=O)Cc3cccc4ccccc34)cc2[N+](=O)[O-])cc1` (centres undefined), the Potency was “inactive”. In the case of `Cc1cc(C)cc(C(=O)NC(CC(N)=O)c2ccc(NC3CCCC3)c([N+](=O)[O-])c2)c1` (centres undefined), the Potency is reported as inconclusive: 11.6 µM [activator, partial curve, poor fit]. In the case of `COc1ccc(NC(=O)CCOc2ccccc2)cc1`, the Potency is reported as inconclusive: 8.2 µM [activator, single point]. In the case of `COc1cc(CCc2ccc3c(c2)OCO3)oc(=O)c1`, the Potency is reported as inconclusive: 20.6 µM [activator, partial curve, poor fit]. With `O=C(Nc1cnn(Cc2ccc(Cl)c(Cl)c2)c1)C12CC3CC(CC(C3)C1)C2` the Potency was inconclusive: 29.1 µM [inhibitor, single point]. For `Cc1nn(CC(=O)Nc2cccnc2)c(=O)c2ccccc12`, the Potency was “inactive”. In the case of `O=C1NC2(CCCCC2)C(=O)N1CCS(=O)(=O)Oc1ccc(Br)cc1`, the Potency is reported as inconclusive: 23.1 µM [inhibitor, single point]. In the case of `O=C(CCc1nc2ccccc2c(=O)[nH]1)Nc1ccc(Cl)c(Cl)c1`, the Potency is reported as “inactive”. In the case of `C=CCSc1nsc(NC(=O)Nc2cccc(C(C)=O)c2)n1`, the Potency is reported as active: 7.3 µM. With `O=C(Nc1ccc(NC(=O)C2CC2)cc1)c1ccco1` the Potency was inconclusive: 14.6 µM [activator, partial curve]. For `CCOC(=O)C1CCN(C(=O)COc2ccc(S(=O)(=O)N3CCCC3)cc2C)CC1`, the Potency was inconclusive: 29.1 µM [inhibitor, single point]. With `CC1CC(C)CN(C(=O)c2cc3cc(Br)cc(Br)c3o2)C1` (centres undefined) the Potency was inconclusive: 10.3 µM [activator, partial curve]. In the case of `COc1ccc(N2CCN(CC(O)COC(c3ccc(F)cc3)c3ccc(F)cc3)CC2)cc1` (centres undefined), the Potency is reported as inconclusive: 23.1 µM [inhibitor, partial curve]. For `COc1ccc(CCN2C(=O)C(Oc3ccccc3C)C2c2ccc3c(c2)OCO3)cc1OC` (centres undefined), the Potency was inconclusive: 20.6 µM [inhibitor, single point]. In the case of `O=C(c1cc(COc2c(F)cccc2F)on1)N1CCSCC1`, the Potency is reported as inconclusive: 20.6 µM [activator, partial curve]. For `O=c1oc(CCCO)cc2ccc(C#Cc3ccsc3)cc12`, the Potency was inconclusive: 2.06 µM [activator, partial curve]. With `Cc1nc2ccc(S(=O)(=O)NCC(=O)N(C)Cc3ccccc3)cc2s1` the Potency was inconclusive: 29.1 µM [inhibitor, single point]. With `CN1/C(=C\C=N\NC(=O)c2cccnc2)C(C)(C)c2ccccc21` the Potency was inconclusive: 29.1 µM [inhibitor, single point]. With `COc1ccc(NC(=O)COC(=O)c2ccccc2SCC(=O)N2CCCC2)cc1` the Potency was inconclusive: 29.1 µM [activator, single point]. For `Cc1ccc(S(=O)(=O)N2CCOCC2)cc1C(=O)Nc1cccc(S(=O)(=O)N2CCCC2)c1`, the Potency was inconclusive: 18.3 µM [inhibitor, single point]. In the case of `CCN(c1ccccc1)S(=O)(=O)c1ccc(C(=O)Nc2nnc(-c3ccco3)o2)cc1`, the Potency is reported as inconclusive: 6.51 µM [inhibitor, full curve]. In the case of `COCCNC(=O)/C(C#N)=C/c1cc(C)n(-c2ccc(C)cc2)c1C`, the Potency is reported as inconclusive: 7.3 µM [activator, partial curve]. With `COc1cc(NC(=O)c2ccccc2Cl)c(OC)cc1NC(=O)CN1CCCCC1` the Potency was “inactive”.
